Reference: PubChem BioAssay AID652259 (Drosophila RNAi Screening Center, 2013)
Purpose: 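Genome-wide hunt for genes that control Wingless pathway activity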 (primary screen). Cell system: Drosophila clone 8 imaginal disc epithelial cells. Knock-down reagent: long dsRNA against Drosophila genes. Challenge: pathway stimulated by co-transfected Wingless expression plasmid. Read-out: 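Firefly luciferase from a tcf-site Wingless reporter, measured alongside co-transfected Renilla luciferase that tracks transfection; pathway stimulated by a Wingless plasmid; the firefly-to-Renilla ratio is not deposited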. Reading the numbers: firefly reporter light: higher = more Wg reporter light, before normalisation; Renilla control light: higher = more transfected or surviving cells. Rule for the call: 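Strong candidates differ from their plate mean by at least two out of four per-plate statistical tests; weak candidates meet just one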. Calls: active = candidate regulator (raises or lowers reporter); inactive = not a candidate.
The screen tested about 22,000 reagents; shown is a random part of those that have a named target and a result. Of all reagents, 233 (1.1%) were called active. 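Light values are raw, unnormalised plate reads; the ratio scores behind the reporter calls were not deposited.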 Entries without a mark were called inactive. A plus sign joins genes that one reagent is predicted to hit. The record does not give: the amount of reagent, the time to read-out, the dose of the treatment.

| predicted target | DRSC id | firefly reporter light, replicate 1 | firefly reporter light, replicate 2 | Renilla control light, replicate 1 | Renilla control light, replicate 2 |
| --- | --- | --- | --- | --- | --- |
| Nin | DRSC02007 | 6360 | – | 3061 | – |
| ACXC | DRSC00846 | 1781 | 7658 | 1029 | 3120 |
| ppk8 | DRSC17269 | 3620 | – | 1625 | – |
| CG10077 | DRSC09691 | 4776 | – | 1400 | – |
| CG31855 | DRSC02968 | 1785 | 5622 | 787 | 1440 |
| Saf-B | DRSC16167 | 2594 | 5541 | 893 | 1462 |
| BomS5 | DRSC22306 | 3.10e5 | 3.33e5 | 1.30e5 | 1.29e5 |
| ZIPIC | DRSC16349 | 2272 | 7403 | 1122 | 2443 |
| CG32081 | DRSC09861 | 5302 | – | 2955 | – |
| lncRNA:CR30055 | DRSC22439 | 5.67e5 | 5.42e5 | 1.78e5 | 1.44e5 |
| CG9436 | DRSC05005 | 10477 | – | 2001 | – |
| capu | DRSC00208 | 18141 | – | 8178 | – |
| capu | DRSC00209 | 23091 | – | 11236 | – |
| capu | DRSC00434 | 2666 | 10000 | 962 | 3116 |
| capu | DRSC00807 | 18657 | – | 5552 | – |
| CG9030 | DRSC20139 | 19546 | – | 9168 | – |
| CG4691 | DRSC01950 | 4388 | – | 1954 | – |
| IFT20 + CG10395 | DRSC22660 | 8.40e5 | 6.83e5 | 2.98e5 | 76 |
| CG18810 | DRSC02701 | 2166 | 7922 | 682 | 2912 |
| CG9338 | DRSC03213 | 9457 | – | 3632 | – |
| Acsf3 | DRSC18146 | 24064 | – | 13864 | – |
| LManII | DRSC01986 | 7760 | – | 2388 | – |
| hyd | DRSC16971 | 11476 | – | 2992 | – |
| CG15107 | DRSC06534 | 8704 | – | 2553 | – |
| CG10035 | DRSC14177 | 14968 | – | 3120 | – |
| SdhD | DRSC14215 | 27058 | – | 17412 | – |
| CG6664 | DRSC10690 | 3490 | – | 1840 | – |
| alph | DRSC15398 | 2512 | 8486 | 1104 | 2672 |
| Uxt | DRSC01962 | 3488 | 5969 | 1120 | 2960 |
| CG14230 | DRSC19586 | 3105 | 7730 | 1089 | 2404 |
| Ir56a | DRSC05776 | 19449 | – | 11105 | – |
| CG15202 | DRSC19649 | 22842 | – | 11225 | – |
| CG33689 | DRSC09424 | 3504 | – | 1714 | – |
| se | DRSC10713 | 1757 | 6486 | 1012 | 2697 |
| Csk | DRSC12861 | 2444 | – | 1092 | – |
| Csk | DRSC15223 | 3843 | – | 1376 | – |
| sun | DRSC20140 | 16640 | – | 6699 | – |
| Tmhs | DRSC08231 | 14563 | – | 5858 | – |
| CG9812 | DRSC04566 | 2608 | 7195 | 838 | 2720 |
| CG9701 | DRSC11093 | 4882 | – | 2161 | – |
| CG7675 | DRSC16280 | 2864 | 8199 | 1088 | 2944 |
| aurB | DRSC03548 | 6442 | – | 2188 | – |
| CG14014 | DRSC02345 | 2800 | 7638 | 1309 | 3736 |
| Rbp | DRSC15724 | 19796 | – | 784 | – |
| Rbp | DRSC15726 | 12451 | – | 4109 | – |
| CG8389 | DRSC07158 | 12289 | – | 4227 | – |
| CG8389 | DRSC22855 | 5.63e5 | 5.81e5 | 1.73e5 | 2.41e5 |
| TwdlS | DRSC14737 | 5312 | – | 2324 | – |
| CG7806 | DRSC03071 | 12772 | – | 4308 | – |
| CG15312 | DRSC18000 | 2204 | 5157 | 640 | 1531 |
| Lip3 | DRSC16727 | 13940 | 7.07e5 | 4698 | 3.20e5 |
| mRpL21 | DRSC11100 | 9992 | – | 3787 | – |
| CG31010 | DRSC14006 | 4944 | – | 1488 | – |
| grh | DRSC05680 | 28576 | – | 16629 | – |
| grh | DRSC05683 | 10874 | – | 5658 | – |
| grh | DRSC07624 | 11116 | – | 2170 | – |
| grh | DRSC07625 | 6689 | – | 2337 | – |
| trol | DRSC17714 | 4056 | – | 1706 | – |
| trol | DRSC17718 | 3984 | – | 1542 | – |
| trol | DRSC18613 | 15017 | – | 9491 | – |
| trol | DRSC18814 | 11394 | – | 11163 | – |
| CG6287 | DRSC02947 | 6138 | – | 2256 | – |
| SiaT | DRSC04494 | 2064 | 4873 | 589 | 1834 |
| Mst84Dd | DRSC12600 | 17456 | – | 4626 | – |
| Dpit47 | DRSC04985 | 1847 | 6263 | 567 | 1673 |
| rempA | DRSC00327 | 2116 | 5532 | 843 | 2416 |
| Nrx-1 | DRSC16184 | 4471 | 6217 | 849 | 1289 |
| Herp | DRSC02394 | 10976 | – | 4996 | – |
| CG11168 | DRSC14292 | 2508 | 5113 | 1047 | 1562 |
| CG32195 | DRSC09533 | 2746 | – | 1468 | – |
| Kpc1 | DRSC16107 | 8352 | – | 3942 | – |
| sca | DRSC07677 | 5450 | – | 1853 | – |
| loh | DRSC01122 | 17014 | – | 7149 | – |
| loh | DRSC02943 | 2779 | 5754 | 813 | 3142 |

Reformatted: results already given
CG4691 [DRSC01950]: firefly reporter light, replicate 1 = 4388; Renilla control light, replicate 1 = 1954
IFT20 + CG10395 [DRSC22660]: firefly reporter light, replicate 1 = 8.40e5; firefly reporter light, replicate 2 = 6.83e5; Renilla control light, replicate 1 = 2.98e5; Renilla control light, replicate 2 = 76
CG18810 [DRSC02701]: firefly reporter light, replicate 1 = 2166; firefly reporter light, replicate 2 = 7922; Renilla control light, replicate 1 = 682; Renilla control light, replicate 2 = 2912
CG9338 [DRSC03213]: firefly reporter light, replicate 1 = 9457; Renilla control light, replicate 1 = 3632
Acsf3 [DRSC18146]: firefly reporter light, replicate 1 = 24064; Renilla control light, replicate 1 = 13864
LManII [DRSC01986]: firefly reporter light, replicate 1 = 7760; Renilla control light, replicate 1 = 2388
